This is a selection; strong and weak results do not stand in their true shares.
compound: COC(=O)C#Cc1ccccc1 [methyl 3-phenylpropiolate]; test: log2 ratio of iodoacetamide-alkyne labeling of the cysteine site, DMSO over compound (competition); higher = stronger covalent engagement of the cysteine by the compound, active = 1 or more; details: 500 µM; treatment time 1 h; system: HEK293T cell lysate
Summary of the method: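 After 1 h at ambient temperature with vehicle or electrophile (500 µM), HEK293T lysate (2 mg/mL) was labelled for 1 h with iodoacetamide alkyne and clicked to sCIP-TMT reagents. Pooled samples were trypsin-digested overnight at 37 °C, streptavidin-enriched, acid-eluted and analysed by Orbitrap Eclipse LC-MS/MS with FAIMS, then quantified in FragPipe over three replicates with duplicate channels. A cysteine's log2 competition ratio is its mean control-channel over mean compound-channel reporter intensity. Cysteines quantified in only one replicate were not included.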

Chains of the proteins cited; added tags and fusions are not shown. Lines headed by an entry give the natural chain unless they say otherwise; changes in a name come on top.
UniProt P12081: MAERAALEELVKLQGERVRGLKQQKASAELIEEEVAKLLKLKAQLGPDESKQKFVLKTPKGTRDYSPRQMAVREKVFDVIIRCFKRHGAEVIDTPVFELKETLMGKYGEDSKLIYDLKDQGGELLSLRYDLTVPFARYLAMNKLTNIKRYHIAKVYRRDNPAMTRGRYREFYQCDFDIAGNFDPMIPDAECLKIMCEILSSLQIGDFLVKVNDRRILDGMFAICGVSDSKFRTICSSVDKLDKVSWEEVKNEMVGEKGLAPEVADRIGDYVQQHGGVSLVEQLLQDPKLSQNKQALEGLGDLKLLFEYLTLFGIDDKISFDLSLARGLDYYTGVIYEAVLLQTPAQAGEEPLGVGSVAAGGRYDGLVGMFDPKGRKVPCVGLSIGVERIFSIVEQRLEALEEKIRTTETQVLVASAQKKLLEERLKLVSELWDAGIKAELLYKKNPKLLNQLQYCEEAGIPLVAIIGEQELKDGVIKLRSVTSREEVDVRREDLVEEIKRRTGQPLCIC
UniProt P11802: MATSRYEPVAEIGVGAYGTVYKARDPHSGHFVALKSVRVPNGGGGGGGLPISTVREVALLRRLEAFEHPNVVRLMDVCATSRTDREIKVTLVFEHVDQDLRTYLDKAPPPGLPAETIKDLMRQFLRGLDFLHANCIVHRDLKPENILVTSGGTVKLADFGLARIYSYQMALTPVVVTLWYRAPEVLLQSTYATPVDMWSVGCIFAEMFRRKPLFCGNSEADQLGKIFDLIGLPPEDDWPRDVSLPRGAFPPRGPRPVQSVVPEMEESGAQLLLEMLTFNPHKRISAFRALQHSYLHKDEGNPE
UniProt P12277: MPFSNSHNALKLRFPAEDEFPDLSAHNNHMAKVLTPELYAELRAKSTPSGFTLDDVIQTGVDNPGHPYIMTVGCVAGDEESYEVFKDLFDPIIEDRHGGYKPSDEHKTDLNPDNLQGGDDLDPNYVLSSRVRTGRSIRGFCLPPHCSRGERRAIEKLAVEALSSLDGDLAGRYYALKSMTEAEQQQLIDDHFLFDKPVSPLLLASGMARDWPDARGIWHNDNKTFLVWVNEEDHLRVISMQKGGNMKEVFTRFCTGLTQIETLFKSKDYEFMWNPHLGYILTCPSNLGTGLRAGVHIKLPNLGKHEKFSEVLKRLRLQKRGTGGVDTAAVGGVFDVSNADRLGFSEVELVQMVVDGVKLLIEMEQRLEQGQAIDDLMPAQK
UniProt P15531, whole entry, looked up: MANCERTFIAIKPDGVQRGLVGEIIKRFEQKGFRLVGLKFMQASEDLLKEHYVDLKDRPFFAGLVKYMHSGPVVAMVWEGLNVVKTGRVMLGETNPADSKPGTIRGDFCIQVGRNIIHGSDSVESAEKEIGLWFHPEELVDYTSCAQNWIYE
UniProt P16930: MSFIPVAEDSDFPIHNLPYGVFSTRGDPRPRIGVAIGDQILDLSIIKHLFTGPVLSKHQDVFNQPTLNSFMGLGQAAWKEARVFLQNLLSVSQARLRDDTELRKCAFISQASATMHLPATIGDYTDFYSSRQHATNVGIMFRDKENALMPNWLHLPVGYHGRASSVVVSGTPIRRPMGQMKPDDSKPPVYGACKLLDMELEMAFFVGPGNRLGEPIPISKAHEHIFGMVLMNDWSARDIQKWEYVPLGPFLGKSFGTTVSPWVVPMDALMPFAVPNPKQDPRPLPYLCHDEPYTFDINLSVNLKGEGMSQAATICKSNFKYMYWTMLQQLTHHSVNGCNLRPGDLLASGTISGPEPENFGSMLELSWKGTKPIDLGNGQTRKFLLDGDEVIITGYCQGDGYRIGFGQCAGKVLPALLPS
UniProt P14618, whole entry, looked up: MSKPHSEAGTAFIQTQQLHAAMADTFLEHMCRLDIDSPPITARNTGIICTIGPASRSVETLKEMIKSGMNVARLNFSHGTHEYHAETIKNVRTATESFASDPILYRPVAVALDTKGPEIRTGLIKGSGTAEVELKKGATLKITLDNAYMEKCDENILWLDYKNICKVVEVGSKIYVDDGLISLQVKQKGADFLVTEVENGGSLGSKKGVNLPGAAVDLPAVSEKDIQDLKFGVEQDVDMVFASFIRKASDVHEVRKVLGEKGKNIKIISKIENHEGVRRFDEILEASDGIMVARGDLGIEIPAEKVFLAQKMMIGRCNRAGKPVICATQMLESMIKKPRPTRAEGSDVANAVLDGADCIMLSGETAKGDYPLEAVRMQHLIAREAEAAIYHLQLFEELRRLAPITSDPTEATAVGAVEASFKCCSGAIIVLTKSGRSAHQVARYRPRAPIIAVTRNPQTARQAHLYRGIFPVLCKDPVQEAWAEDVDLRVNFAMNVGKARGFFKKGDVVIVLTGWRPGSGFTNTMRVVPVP
UniProt P14625, whole entry, looked up: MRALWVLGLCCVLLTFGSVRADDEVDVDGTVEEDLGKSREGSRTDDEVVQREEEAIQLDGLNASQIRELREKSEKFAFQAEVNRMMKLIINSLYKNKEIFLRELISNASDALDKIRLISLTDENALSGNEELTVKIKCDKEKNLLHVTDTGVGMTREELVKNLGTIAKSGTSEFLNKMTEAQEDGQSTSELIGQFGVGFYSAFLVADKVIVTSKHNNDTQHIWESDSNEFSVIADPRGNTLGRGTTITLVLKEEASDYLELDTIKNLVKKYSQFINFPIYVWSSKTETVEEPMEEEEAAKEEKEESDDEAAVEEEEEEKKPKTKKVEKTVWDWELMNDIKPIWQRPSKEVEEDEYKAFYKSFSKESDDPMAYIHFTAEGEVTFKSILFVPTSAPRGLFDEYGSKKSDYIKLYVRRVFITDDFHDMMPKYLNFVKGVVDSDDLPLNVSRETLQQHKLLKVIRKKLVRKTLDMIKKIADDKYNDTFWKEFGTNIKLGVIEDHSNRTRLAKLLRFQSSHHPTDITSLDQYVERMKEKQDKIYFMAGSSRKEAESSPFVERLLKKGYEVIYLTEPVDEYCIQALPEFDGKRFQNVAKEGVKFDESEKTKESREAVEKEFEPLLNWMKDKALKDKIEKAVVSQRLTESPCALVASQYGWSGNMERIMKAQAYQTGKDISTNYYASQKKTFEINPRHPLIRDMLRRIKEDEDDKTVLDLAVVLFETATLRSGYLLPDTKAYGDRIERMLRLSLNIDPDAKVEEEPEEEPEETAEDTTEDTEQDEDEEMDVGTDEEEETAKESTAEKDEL
UniProt P17812: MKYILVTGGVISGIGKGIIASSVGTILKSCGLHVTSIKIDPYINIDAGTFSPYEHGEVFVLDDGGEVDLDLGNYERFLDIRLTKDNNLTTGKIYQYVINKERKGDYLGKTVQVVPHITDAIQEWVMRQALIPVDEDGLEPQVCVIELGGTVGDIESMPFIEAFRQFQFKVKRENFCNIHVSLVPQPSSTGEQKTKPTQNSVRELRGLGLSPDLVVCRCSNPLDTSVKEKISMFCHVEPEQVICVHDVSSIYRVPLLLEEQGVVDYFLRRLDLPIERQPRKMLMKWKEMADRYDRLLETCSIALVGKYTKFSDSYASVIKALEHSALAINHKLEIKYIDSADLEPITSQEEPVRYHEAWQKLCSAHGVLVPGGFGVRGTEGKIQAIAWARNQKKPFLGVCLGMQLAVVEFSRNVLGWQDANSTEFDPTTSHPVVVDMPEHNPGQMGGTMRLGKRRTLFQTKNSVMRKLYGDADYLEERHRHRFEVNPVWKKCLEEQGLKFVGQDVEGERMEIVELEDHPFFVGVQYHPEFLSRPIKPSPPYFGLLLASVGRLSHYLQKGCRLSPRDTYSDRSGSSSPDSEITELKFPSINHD
UniProt P09622, whole entry, looked up: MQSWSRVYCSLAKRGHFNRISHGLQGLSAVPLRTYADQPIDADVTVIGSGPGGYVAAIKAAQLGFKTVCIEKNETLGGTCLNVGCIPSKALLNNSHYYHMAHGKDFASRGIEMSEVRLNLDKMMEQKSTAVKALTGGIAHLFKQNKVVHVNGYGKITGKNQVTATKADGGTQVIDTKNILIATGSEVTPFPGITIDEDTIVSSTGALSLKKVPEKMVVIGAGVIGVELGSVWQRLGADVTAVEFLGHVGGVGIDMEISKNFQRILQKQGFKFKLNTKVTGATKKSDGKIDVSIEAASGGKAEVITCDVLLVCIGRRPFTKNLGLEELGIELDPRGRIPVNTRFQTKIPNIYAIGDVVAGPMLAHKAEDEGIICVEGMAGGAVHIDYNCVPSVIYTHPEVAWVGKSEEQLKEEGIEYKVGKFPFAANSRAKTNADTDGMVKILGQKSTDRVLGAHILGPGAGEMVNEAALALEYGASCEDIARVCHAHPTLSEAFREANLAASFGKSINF
UniProt P08243: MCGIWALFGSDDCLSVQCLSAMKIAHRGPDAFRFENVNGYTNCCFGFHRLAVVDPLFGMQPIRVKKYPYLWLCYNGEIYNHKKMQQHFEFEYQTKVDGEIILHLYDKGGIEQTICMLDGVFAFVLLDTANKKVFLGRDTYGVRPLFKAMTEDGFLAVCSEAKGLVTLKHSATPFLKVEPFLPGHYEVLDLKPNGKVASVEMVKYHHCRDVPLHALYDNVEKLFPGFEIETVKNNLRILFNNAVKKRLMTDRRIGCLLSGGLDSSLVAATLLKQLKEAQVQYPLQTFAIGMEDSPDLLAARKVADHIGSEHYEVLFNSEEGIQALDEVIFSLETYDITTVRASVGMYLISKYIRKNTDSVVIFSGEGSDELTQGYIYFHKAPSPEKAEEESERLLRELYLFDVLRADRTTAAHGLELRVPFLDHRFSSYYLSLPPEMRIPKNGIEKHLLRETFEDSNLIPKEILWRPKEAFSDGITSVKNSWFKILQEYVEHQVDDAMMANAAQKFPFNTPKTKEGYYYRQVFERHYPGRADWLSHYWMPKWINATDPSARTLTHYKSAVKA
UniProt P07919: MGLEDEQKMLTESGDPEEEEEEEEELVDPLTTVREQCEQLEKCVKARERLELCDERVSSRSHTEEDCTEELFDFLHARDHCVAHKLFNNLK
UniProt P13489: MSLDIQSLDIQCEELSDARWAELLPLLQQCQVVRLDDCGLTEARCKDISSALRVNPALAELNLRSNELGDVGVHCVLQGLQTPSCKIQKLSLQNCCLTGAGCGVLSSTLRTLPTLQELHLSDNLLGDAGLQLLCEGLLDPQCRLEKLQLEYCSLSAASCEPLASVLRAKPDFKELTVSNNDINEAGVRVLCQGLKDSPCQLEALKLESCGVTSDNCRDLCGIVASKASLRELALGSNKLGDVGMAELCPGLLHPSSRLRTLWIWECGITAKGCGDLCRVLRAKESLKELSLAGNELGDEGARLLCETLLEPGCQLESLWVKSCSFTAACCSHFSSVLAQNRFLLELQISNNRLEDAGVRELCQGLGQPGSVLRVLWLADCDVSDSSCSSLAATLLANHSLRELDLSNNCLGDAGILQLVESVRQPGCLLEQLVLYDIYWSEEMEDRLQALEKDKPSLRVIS

log2 ratio of iodoacetamide-alkyne labeling, inactive:
HARS C507 (UniProt P12081) 0.276
RPSA C148 (UniProt P08865) 0.122
CDK4 C78 (UniProt P11802) 0.149
U2AF1L5 C169 (UniProt P0DN76) -0.00444
CKB C283 (UniProt P12277) 0.217
NME1 C109 (UniProt P15531) -0.00281
FAH C105 (UniProt P16930) 0.289
UniProt P14618_C326 -0.0946
HSP90B1 C645 (UniProt P14625) -0.0466
UniProt P17812_C491 0.134
EEF2 C136 (UniProt P13639) 0.0351
DLD C477 (UniProt P09622) 0.379
ASNS C158 (UniProt P08243) -0.266
UQCRH C37 (UniProt P07919) 0.897
RNH1 C75 (UniProt P13489) 0.145

Taken from the results shown (3 entries):
log2 ratio of iodoacetamide-alkyne labeling, inactive:
ASNS C158 (UniProt P08243) -0.266
UQCRH C37 (UniProt P07919) 0.897
RNH1 C75 (UniProt P13489) 0.145
